This data set can be described thus: Incorporation of Dil into ISCOMs. As to conditions: 150 μg/ml, absorption at 552 nm vs standard in methanol.

In the case of `CCCCCCCCCCCCCCCCCCN1C(=CC=CC2=[N+](CCCCCCCCCCCCCCCCCC)c3ccccc3C2(C)C)C(C)(C)c2ccccc21.[O-][Cl+3]([O-])([O-])[O-]` [Dil, 1,1′-dioctadecyl-3,3,3′,3′-tetramethylindocarbocyanine perchlorate], the Percent incorporation reads like this: (Dil dissolved in DMF) 93/104; (Dil dissolved in EtOH) 97/85.

For the origin of these results see patent US7713942B2, “Cage-like microparticle complexes comprising sterols and saponins for delivery of polynucleotides” (Nordic Vaccine Technology A/S, priority 2001, dated 2010).
